Test [1] addresses chimeric ligand with the intracellular and transmembrane regions from TNF-alpha and the extracellular region of TALL-1 (aa 75-285), on transfected COS 7 cells (human) (UniProt P01375). Nature of the test: receptor-Fc staining of transfected COS 7 cells, biotinylated anti-human antibody and Cy3-streptavidin.
For test [2] the target is unchanged. Nature of the test: receptor-Fc (1 µg/ml) staining of transfected COS 7 cells, biotinylated anti-human antibody and Cy3-streptavidin.

Protein sequences, listed by entry. Tags and fused reporters are not part of them. Lines headed by an entry give the natural chain unless they say otherwise; changes in a name come on top.
UniProt P01375: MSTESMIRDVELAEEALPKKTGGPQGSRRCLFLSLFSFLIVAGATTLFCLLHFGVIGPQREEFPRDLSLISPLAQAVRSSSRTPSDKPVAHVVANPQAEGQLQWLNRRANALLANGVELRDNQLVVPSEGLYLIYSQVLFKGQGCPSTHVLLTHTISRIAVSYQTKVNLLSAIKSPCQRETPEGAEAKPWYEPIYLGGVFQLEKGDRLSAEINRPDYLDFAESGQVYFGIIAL
UniProt Q96RJ3: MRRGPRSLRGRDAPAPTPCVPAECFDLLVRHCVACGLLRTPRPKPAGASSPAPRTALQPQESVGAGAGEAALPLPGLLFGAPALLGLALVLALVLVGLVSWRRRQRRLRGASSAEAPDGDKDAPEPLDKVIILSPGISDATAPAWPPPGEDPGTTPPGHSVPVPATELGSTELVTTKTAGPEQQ

The results in this text go back to patent publication US20050070689A1 (Genentech, published 2005).

These are yes or no findings as the source states them, for the method shown. Some entries that bind do so weakly or less than the wild type. For part of these data: Tags and fused reporters may be left off the sequences shown.

“hBR3-hFc (from UniProt Q96RJ3 2-62) (Fc fusion)”: the binding result in test [1] was “binds”.

B1: Murine BR3-Fc (Fc fusion)
chain: MGARRLRVRSQRSRDSSVPTQCNQTECFDPLVRNCVSCELFHTPDTGHTSSLEPGTALQPQEGSALRPDVA
notes: Only 'prepared as described above' is said; also called mBR3-hFc; not shown: human IgG1 Fc region
B1: the binding entry in test [1] was “binds”.

B2: TACI-hFc (Fc fusion, not shown: a dimerising Fc or GST)
chain: SGLGRSRRGGRSRVDQEERFPQGLWTGVAMRSCPEEQYWDPLLGTCMSCKTICNHQSQRTCAAFCRSLSCRKEQGKFYDHLLRDCISCASICGQHPKQCAYFCENKLRSPVNLPPELRRQRSGEVENNSDNSGRYQGLEHRGSEASPALPGLKLSADQVALVYST
For B2, the binding result in test [2] is listed as “binds”.
